PubChem BioAssay AID686938 – Drosophila RNAi Screening Center, 2013
The screen tested about 23,000 reagents; shown is an unselected part of those that have a named target and a result. Over the whole deposit, 75 (0.33%) got an active call. 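Raw plate signals without normalisation; calls rest on plate z-scores that were not deposited; ratio present for only 364 wells.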 A number with no mark means an inactive call. The record does not give: the dose of the treatment.

Aim: 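Looking for CRAC channel components and the factors controlling them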 (primary screen)
Cell system: Drosophila S2R+ cells
Reagents: long dsRNA against Drosophila genes, about 0.25 µg dsRNA per well, roughly 10,000 cells
Time to read-out: 5 days of knock-down before the calcium assay
Conditions: thapsigargin (SERCA pump blocker) to empty calcium stores; entry signal taken 4 min after adding it
Measurement: 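Per-well fluo-4 fluorescence in two replicates, unnormalised, measured in resting cells and 4 min after store depletion by the SERCA blocker thapsigargin; ratio of the two present in few wells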
Reading the numbers: calcium entry signal: higher = stronger calcium signal after store depletion; resting calcium signal: higher = higher resting calcium signal
Units: calcium entry signal in fluorescence units; resting calcium signal in fluorescence units
Call rule: 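Called when the plate z-score of the entry-to-rest ratio, mean of duplicates, falls below −3; wells with low overall dye signal (Fmax z below −2) or more than five off-targets excluded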
Calls: active = strongly reduced calcium entry; inactive = no strong reduction

For CG5388 [DRSC15789], what does the deposit list?
calcium entry signal, replicate 1: 5.39e7; calcium entry signal, replicate 2: 5.07e7; resting calcium signal, replicate 1: 4.48e7; resting calcium signal, replicate 2: 2.09e7

With CG14537 [DRSC02395], how do the results read?
calcium entry signal, replicate 1: 3.12e7; calcium entry signal, replicate 2: 3.72e7; resting calcium signal, replicate 1: 1.47e7; resting calcium signal, replicate 2: 1.69e7

For CG33514 [DRSC08471], what was measured?
calcium entry signal, replicate 1: 2.46e7; calcium entry signal, replicate 2: 2.14e7; resting calcium signal, replicate 1: 1.50e7; resting calcium signal, replicate 2: 1.04e7

With CG33514 [DRSC08472], what does the deposit list?
calcium entry signal, replicate 1: 1.65e7; calcium entry signal, replicate 2: 3.91e7; resting calcium signal, replicate 1: 9.13e6; resting calcium signal, replicate 2: 1.56e7

Which result is listed for CG33514 [DRSC21670]?
calcium entry signal, replicate 1: 4.28e7; calcium entry signal, replicate 2: 3.73e7; resting calcium signal, replicate 1: 2.51e7; resting calcium signal, replicate 2: 1.79e7

For CG17237 [DRSC00491], what was measured?
calcium entry signal, replicate 1: 4.31e7; calcium entry signal, replicate 2: 4.84e7; resting calcium signal, replicate 1: 1.92e7; resting calcium signal, replicate 2: 2.08e7

Which result is listed for MICU1 [DRSC02752]?
calcium entry signal, replicate 1: 4.14e7; resting calcium signal, replicate 1: 2.23e7

Which result is listed for jb [DRSC20531]?
calcium entry signal, replicate 1: 4.92e7; calcium entry signal, replicate 2: 5.19e7; resting calcium signal, replicate 1: 2.25e7; resting calcium signal, replicate 2: 2.09e7

An excerpt from the list above:
CG33514 [DRSC08472]: calcium entry signal, replicate 1 = 1.65e7; calcium entry signal, replicate 2 = 3.91e7; resting calcium signal, replicate 1 = 9.13e6; resting calcium signal, replicate 2 = 1.56e7
CG33514 [DRSC21670]: calcium entry signal, replicate 1 = 4.28e7; calcium entry signal, replicate 2 = 3.73e7; resting calcium signal, replicate 1 = 2.51e7; resting calcium signal, replicate 2 = 1.79e7

Continued:
What is on record for CG12024 [DRSC08229]?
calcium entry signal, replicate 1: 3.83e7; calcium entry signal, replicate 2: 2.93e7; resting calcium signal, replicate 1: 1.69e7; resting calcium signal, replicate 2: 1.56e7

What is on record for CG34225 [DRSC05270]?
calcium entry signal, replicate 1: 5.00e7; calcium entry signal, replicate 2: 5.95e7; resting calcium signal, replicate 1: 2.48e7; resting calcium signal, replicate 2: 2.47e7

What is on record for CG14958 [DRSC08417]?
calcium entry signal, replicate 1: 2.73e7; calcium entry signal, replicate 2: 2.62e7; resting calcium signal, replicate 1: 1.73e7; resting calcium signal, replicate 2: 1.38e7

How did the screen score conv [DRSC07213]?
calcium entry signal, replicate 1: 2.20e7; calcium entry signal, replicate 2: 3.26e7; resting calcium signal, replicate 1: 1.20e7; resting calcium signal, replicate 2: 1.42e7

With Bet5 [DRSC14600], what does the deposit list?
calcium entry signal, replicate 1: 2.99e7; calcium entry signal, replicate 2: 3.07e7; resting calcium signal, replicate 1: 1.54e7; resting calcium signal, replicate 2: 1.49e7

How did the screen score Eig71Eh [DRSC11155]?
calcium entry signal, replicate 1: 5.30e7; calcium entry signal, replicate 2: 6.56e7; resting calcium signal, replicate 1: 2.34e7; resting calcium signal, replicate 2: 2.71e7
